Measured values reported in patent US7026314B2, “Therapeutic chromone compounds” (AstraZeneca AB, priority 2001, dated 2006).
Some of these results come from one statement about several compounds together. For at least one compound, name, drawing or mass did not settle the structure. Some compounds share one range, which may span the group rather than tell each member.

Protein sequences, listed by entry. Tags and fused reporters are not part of them.
UniProt O08892, whole entry: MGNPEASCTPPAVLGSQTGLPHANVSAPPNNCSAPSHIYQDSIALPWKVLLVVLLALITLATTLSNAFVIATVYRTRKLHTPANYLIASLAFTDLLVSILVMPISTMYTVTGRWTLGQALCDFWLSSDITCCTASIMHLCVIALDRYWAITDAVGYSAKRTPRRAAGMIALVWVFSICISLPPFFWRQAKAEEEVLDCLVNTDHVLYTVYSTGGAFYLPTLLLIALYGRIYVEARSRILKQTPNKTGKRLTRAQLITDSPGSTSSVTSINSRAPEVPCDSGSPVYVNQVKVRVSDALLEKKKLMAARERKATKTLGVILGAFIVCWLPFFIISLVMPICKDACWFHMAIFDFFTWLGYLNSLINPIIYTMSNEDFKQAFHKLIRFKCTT

biological target: T1, 5-HT1B receptor (Cavia porcellus, UniProt O08892); assay: guinea pig hypothermia test (block of 5-HT1B agonist-induced hypothermia); format: in vivo; conditions: reversing 5HT1B agonist-induced hypothermia in the guinea pig
T1 construct: from tissue; host or cells: living guinea pig (whole animal, in vivo)

5HT1B antagonist activity in a dosage range, 0.006 to 5.5 mg/kg:
CN1CCN(c2cccc3c(=O)cc(C(=O)Nc4ccc(N5CCOCC5)cc4)oc23)CC1 [Example 1, 8-(4-methyl-1-piperazinyl)-N-[4-(4-morpholinyl)phenyl]-4-oxo-4H-chromene-2-carboxamide]
CC(=O)N1CCN(c2ccc(NC(=O)c3cc(=O)c4cccc(N5CCN(C)CC5)c4o3)cc2)CC1 [Example 10, 8-(4-Methyl-piperazin-1-yl)-4-oxo-4H-chromene-2-carboxylic acid [4-(4-acetyl-piperazin-1-yl)-phenyl]-amide]
CN1CCN(c2cccc3c(=O)cc(C(=O)Nc4ccc(N5CCN(S(C)(=O)=O)CC5)cc4)oc23)CC1 [Example 11, 8-(4-Methyl-piperazin-1-yl)-4-oxo-4H-chromene-2-carboxylic acid [4-(4-methanesulfonyl-piperazin-1-yl)-phenyl]-amide]
COc1cc(N2CCN(C)CC2)c2oc(C(=O)Nc3ccc(N4CCOCC4)cc3)cc(=O)c2c1 [Example 31, 6-Methoxy-8-(4-methyl-piperazin-1-yl)-4-oxo-4H-chromene-2-carboxylic acid (4-morpholin-4-yl-phenyl)-amide]
COc1cc(N2CCN(C)CC2)c2oc(C(=O)Nc3ccc(N4CCN(S(C)(=O)=O)CC4)cc3)cc(=O)c2c1 [Example 32, 6-Methoxy-8-(4-methyl-piperazin-1-yl)-4-oxo-4H-chromene-2-carboxylic acid [4-(4-methanesulfonyl-piperazin-1-yl)-phenyl]-amide]
COc1cc(N2CCN(C)CC2)c2oc(C(=O)Nc3ccc(N4CCOCC4)c(F)c3)cc(=O)c2c1 [Example 34, 6-Methoxy-8-(4-methyl-piperazin-1-yl)-4-oxo-4H-chromene-2-carboxylic acid (3-fluoro-4-morpholin-4-yl-phenyl)-amide]
CCC(=O)N1CCN(c2ccc(NC(=O)c3cc(=O)c4cc(OC)cc(N5CCN(C)CC5)c4o3)cc2)CC1 [Example 44, 6-Methoxy-8-(4-methyl-piperazin-1-yl)-4-oxo-4H-chromene-2-carboxylic acid [4-(4-propionyl-piperazin-1-yl)-phenyl]-amide]
CN1CCN(c2cc(F)cc3c(=O)cc(C(=O)Nc4ccc(N5CCOCC5)cc4)oc23)CC1 [Example 55, 6-Fluoro-8-(4-methyl-piperazin-1-yl)-4-oxo-4H-chromene-2-carboxylic acid (4-morpholin-4-yl-phenyl)-amide]
CN1CCN(c2cc(F)cc3c(=O)cc(C(=O)Nc4ccc(N5CCN(S(C)(=O)=O)CC5)cc4)oc23)CC1 [Example 56, 6-Fluoro-8-(4-methyl-piperazin-1-yl)-4-oxo-4H-chromene-2-carboxylic acid [4-(4-methanesulfonyl-piperazin-1-yl)-phenyl]-amide]
CC(=O)N1CCN(c2ccc(NC(=O)c3cc(=O)c4cc(F)cc(N5CCN(C)CC5)c4o3)cc2)CC1 [Example 57, 6-Fluoro-8-(4-methyl-piperazin-1-yl)-4-oxo-4H-chromene-2-carboxylic acid [4-(4-acetyl-piperazin-1-yl)-phenyl]-amide]
CCS(=O)(=O)N1CCN(c2ccc(NC(=O)c3cc(=O)c4cc(F)cc(N5CCN(C)CC5)c4o3)cc2)CC1 [Example 71, 6-Fluoro-8-(4-methyl-piperazin-1-yl)-4-oxo-4H-chromene-2-carboxylic acid [4-(4-ethanesulfonyl-piperazin-1-yl)-phenyl]-amide]
CCC(=O)N1CCN(c2ccc(NC(=O)c3cc(=O)c4cc(F)cc(N5CCN(C)CC5)c4o3)cc2)CC1 [Example 72, 6-Fluoro-8-(4-methyl-piperazin-1-yl)-4-oxo-4H-chromene-2-carboxylic acid [4-(4-propionyl-piperazin-1-yl)-phenyl]-amide]
